In paper PMC7819943, “Rice protein-binding microarrays: a tool to detect cis-acting elements near promoter regions in rice”:
The other results are listed elsewhere or left out.

These sequences were tested against T1, OsSMF1 (Oryza sativa, UniProt Q6ZLB0 1-436) (assay: protein-binding microarray (RPBM); PBS, 2% BSA, 51.3 ng/ul salmon testes DNA, 50 uM zinc acetate, 200 nM TF, 25 C, 1 h; high values mean tight binding). Conditions: protein: recombinant; tags: N-terminal polyhistidine and DsRed monomer fusion (pET32a); chain copies: 2; label: CyDye5-dUTP incorporated in the synthesized complementary strand; 3' TTTTT single-stranded linker to array surface; dsDNA, one strand shown.
T1 sequence: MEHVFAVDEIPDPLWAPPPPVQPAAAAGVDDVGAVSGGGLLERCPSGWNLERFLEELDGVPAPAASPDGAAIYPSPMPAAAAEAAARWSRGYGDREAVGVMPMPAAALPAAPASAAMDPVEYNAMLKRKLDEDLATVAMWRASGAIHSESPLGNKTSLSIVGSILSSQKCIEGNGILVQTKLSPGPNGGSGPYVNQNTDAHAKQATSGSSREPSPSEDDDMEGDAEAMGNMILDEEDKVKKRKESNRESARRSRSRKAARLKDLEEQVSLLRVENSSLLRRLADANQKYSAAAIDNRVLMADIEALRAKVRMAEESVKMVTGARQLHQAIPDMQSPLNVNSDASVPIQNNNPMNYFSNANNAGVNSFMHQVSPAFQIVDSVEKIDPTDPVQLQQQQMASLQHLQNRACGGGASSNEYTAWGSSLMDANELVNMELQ
Procedure, shortened: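 In PBS with 2% BSA, salmon testes DNA and 50 µM zinc acetate, 200 nM protein was incubated on a custom Agilent array at 25 °C for 1 h and then washed off. The array had been made double-stranded by primer extension with Cy5-dUTP and blocked with 2% BSA. The proteins were transcription factors fused N-terminally to polyhistidine and DsRed, expressed in E. coli BL21-CodonPlus and purified on Ni–NTA. The binding signal is per-feature fluorescence intensity (arbitrary units) from an Axon 4000B scanner.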

Sequence | binding signal
GCTGTAATCCTCGCTGTCACTGGACCGTGGTTTTGGCTGCCGGAGTCACCTAGTGCAG | 3640 fluorescence intensity (a.u.)
CGCTCCCGGCCATGTCGACAGCTGAGCTGACAAAAGGCGCCGGAGTCACCTAGTGCAG | 3770 fluorescence intensity (a.u.)
AGAGAGAAGGGGAGGGTGAGGTGGACAGGAGAAGATAAGGCGGAGTCACCTAGTGCAG | 3280 fluorescence intensity (a.u.)
GCGCCACATAATTGTAGTCATCCTGCCGGTAACCATTTCGCGGAGTCACCTAGTGCAG | 3690 fluorescence intensity (a.u.)
ATGACTTTTGCAGCCCTGTTGAAGTCCATGTCATTTGCAACGGAGTCACCTAGTGCAG | 4590 fluorescence intensity (a.u.)
GTACTACCGCCGTGGCCATATCGCTCATTCATGATTCATCCGGAGTCACCTAGTGCAG | 6390 fluorescence intensity (a.u.)
ATTTCGCACAGATTTCGATTTGTGGCTGACACCATCCTATCGGAGTCACCTAGTGCAG | 5010 fluorescence intensity (a.u.)
CAAAAGTGGTCCTTGTGTTTGTGTGGCATTAGGATTAGGTCGGAGTCACCTAGTGCAG | 3210 fluorescence intensity (a.u.)
GCTAGCTCCCCTCCGCGTGTGTGTTTATAGGCTTATAGCTCGGAGTCACCTAGTGCAG | 3950 fluorescence intensity (a.u.)
CCTTGATGACATGCTCTGACAGCTCATGAGTTCTACTGGACGGAGTCACCTAGTGCAG | 6860 fluorescence intensity (a.u.)
CGTGCTCCAGATTTATGAATAAAATATGCCGAATGCCGTACGGAGTCACCTAGTGCAG | 28100 fluorescence intensity (a.u.)
TCCACTTGTCCATGGGCCCCACTTGTCAGTGACACTTGTCCGGAGTCACCTAGTGCAG | 3140 fluorescence intensity (a.u.)
ATCTACTACACACATGACACATTCCCATCTTTCCAATGTCCGGAGTCACCTAGTGCAG | 3360 fluorescence intensity (a.u.)
CAAGGAAGAATATGCCACCTCCACGGAGGCCGGCGGCGGCCGGAGTCACCTAGTGCAG | 3710 fluorescence intensity (a.u.)
AAGTAGGAGTCATTGAGTATACACCTAACCATTCAATCCACGGAGTCACCTAGTGCAG | 3360 fluorescence intensity (a.u.)
CCATTCAAAAGTGGGCTACGTGGCCTTATATGTTGCTTGCCGGAGTCACCTAGTGCAG | 5470 fluorescence intensity (a.u.)
CTGTTAGACACCCGCCTCCACGTCACGGGAGCGCATCTCCCGGAGTCACCTAGTGCAG | 15700 fluorescence intensity (a.u.)
GTCGCCGGTCGTCATCAGGTCACTCTACGCCGGCTGATCCCGGAGTCACCTAGTGCAG | 5160 fluorescence intensity (a.u.)
TGGCCAAATAACTCTGTGCTGGCGTGGCTAAACGACGCTCCGGAGTCACCTAGTGCAG | 8080 fluorescence intensity (a.u.)
CAGCTACTACATGTTTTCTCCGTCCAGTCATAGATTTGATCGGAGTCACCTAGTGCAG | 5380 fluorescence intensity (a.u.)
GGTGGTGGTGGTGGTGGTGGTGGTGTAGGAGGAGGAGGAGCGGAGTCACCTAGTGCAG | 5140 fluorescence intensity (a.u.)

Exported with tabs: part of the list above
Sequence	binding signal
GTACTACCGCCGTGGCCATATCGCTCATTCATGATTCATCCGGAGTCACCTAGTGCAG	6390 fluorescence intensity (a.u.)
ATTTCGCACAGATTTCGATTTGTGGCTGACACCATCCTATCGGAGTCACCTAGTGCAG	5010 fluorescence intensity (a.u.)

Later entries.

Sequence | binding signal
CAATAGCGACTGCCATAATTCAACGAATGGGCATGGTTATCGGAGTCACCTAGTGCAG | 22300 fluorescence intensity (a.u.)
CTTGATGGTGTTCCATGCATCTTGACTTCTTGAGAAGCTACGGAGTCACCTAGTGCAG | 3410 fluorescence intensity (a.u.)
CTGTAACTTTCAAAAGATTCATCTGCAAAGTACGTGTCACCGGAGTCACCTAGTGCAG | 5880 fluorescence intensity (a.u.)
ATCCTGCCATCGTCGGGAAGCAAGGATGGTCGGGGAAGACCGGAGTCACCTAGTGCAG | 4970 fluorescence intensity (a.u.)
TGGGCCCACCACAAACCCGCAGGCGCCGCATCTTCTCTCTCGGAGTCACCTAGTGCAG | 3270 fluorescence intensity (a.u.)
AGTTTCGGAAGAAATCTGCCTCGTCCGATTCTGTGGCCATCGGAGTCACCTAGTGCAG | 30700 fluorescence intensity (a.u.)
CGGTACGCGCCGCCGCCGCCGCCGCCACCGCCACCGCCGCCGGAGTCACCTAGTGCAG | 3570 fluorescence intensity (a.u.)
AAAAGGAGGTTTAACCTGTCACCTGTCAGTGCTAGCTCTGCGGAGTCACCTAGTGCAG | 4570 fluorescence intensity (a.u.)
GGGTTGTGGTTGTTGTACGTTGTTGTTGACGGCGATGGTTCGGAGTCACCTAGTGCAG | 3460 fluorescence intensity (a.u.)
CATTTTCCAGGCCAAGCCAGCTCACATCACCAGAGCAACACGGAGTCACCTAGTGCAG | 3720 fluorescence intensity (a.u.)
CCGCCGTGAAGCACACCACCACCAACCCCATCGCTCCCTCCGGAGTCACCTAGTGCAG | 64500 fluorescence intensity (a.u.)
AGAGCATGTCTATGGTGACAGTTATGCCTAACAGAACACACGGAGTCACCTAGTGCAG | 32700 fluorescence intensity (a.u.)
TACATCTCGTGTGTGGGACCCGGAGAAAGCGGTTGGTGGACGGAGTCACCTAGTGCAG | 27000 fluorescence intensity (a.u.)
GTGGAGGCGATCCAGAGCGGGATAGATGCGAACGCTGTTCCGGAGTCACCTAGTGCAG | 29800 fluorescence intensity (a.u.)
TAGGATTCGATCCCACGTCCCGGTTCTTTCGCGTCCATCCCGGAGTCACCTAGTGCAG | 4560 fluorescence intensity (a.u.)
CCACGCGGCCACGCAACGATCCCCTTTTAGTTTCTGCGCTCGGAGTCACCTAGTGCAG | 5590 fluorescence intensity (a.u.)
ATAGTAGAGAAGGGATTTGCATCATCAAATATCGCCGTAGCGGAGTCACCTAGTGCAG | 3180 fluorescence intensity (a.u.)
TGGCTCACAGCTTTGCATTCGGCAGCTAACGCCACGCCCACGGAGTCACCTAGTGCAG | 22300 fluorescence intensity (a.u.)
GCTGCATGCCTGCAAAATTTAACACCACCTAGAGAGATCACGGAGTCACCTAGTGCAG | 24400 fluorescence intensity (a.u.)
ACCGCCGCCGCCGCCGCCCGCGCCGCCGACGAGATAGAGACGGAGTCACCTAGTGCAG | 3520 fluorescence intensity (a.u.)
ACCTACTAACTTATCTTTCATCCCCTGGTAAATCTAGTCGCGGAGTCACCTAGTGCAG | 4600 fluorescence intensity (a.u.)
